According to patent US20220112233A1 (FUJIFILM CORPORATION, priority 2019, published 2022):

Test: general procedure: solution-phase peptide synthesis; COMU; PyAOP
Conditions: coupling step

Substance	step yield [%]
Fmoc-MeNle-Arg(Pbf)-Cys(Trt)-Gly-O-2NaphTAG (1)	96.5
Fmoc-MeNle-MeNle-Arg(Pbf)-Cys(Trt)-Gly-O-2NaphTAG (1)	99.4
